Binding data for one molecule are collected here from publication PMC10550955.

The experiment concerns the target T1, Mb, P68082.
T1 chain: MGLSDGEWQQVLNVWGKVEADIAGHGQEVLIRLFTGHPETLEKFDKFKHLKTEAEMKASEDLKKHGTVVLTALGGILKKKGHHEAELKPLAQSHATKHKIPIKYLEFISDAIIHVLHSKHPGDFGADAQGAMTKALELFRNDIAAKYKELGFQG
The experiment in a line: SPR; homotypic: protein immobilised on CM5 or CM3 chip (~800-1000 RU), the same protein injected at increasing concentrations; BIAcore T200; 20 mM sodium phosphate buffer, pH 7.4; two-state model, one-state model for α-Syn and Chymo; both purified. The settings on record: remark: other sources report otherwise.

Results are given in words; binding and its absence hold for the method and conditions named. Some results given as binding are weak or reduced against the parent protein; the word gives no strength.

B1: Mb, P68082 1-154 (protein)
chain: T1 chain
On to B1, for which the binding entry is “binds”.
